Results deposited as PubChem BioAssay AID743121 (NCATS, 2013).
Shown is an unselected part of about 26,000 deposited reagents. Over the whole deposit, 167 (0.63%) are marked active. 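Calls are per gene from RSA p-values that are not deposited; an individual active-marked siRNA can sensitise only weakly.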 Unmarked entries are inactive. Reagents against one gene are numbered here.

Aim: 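Knock-downs that sensitise breast cancer cells to camptothecin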 (primary screen)
Cell system: MDA-MB-231 cells, a human breast cancer line
Knock-down reagent: single siRNA against human genes, 20 nM siRNA (0.8 pmol per well)
Duration: 120 h (drug added 48 h after transfection, read 72 h later)
Conditions: camptothecin 20 nM (about EC30) for 72 h; vehicle 0.1% DMSO in parallel plates
Measurement: 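CellTiter-Glo ATP signal, scaled to control siRNA as percent viability; sensitisation given as log2 of untreated divided by camptothecin-treated viability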
Reading the numbers: log2 vehicle/camptothecin viability: higher = stronger sensitisation to camptothecin; viability with camptothecin and viability without drug: higher = more viable cells
Hit rule: 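Each gene scored by redundant siRNA activity (RSA) over its individual siRNA ratios; a gene is called active at p < 0.001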

| gene knocked down | reagent no. | log2 vehicle/camptothecin viability | viability with camptothecin (% of control) | viability without drug (% of control) |
| --- | --- | --- | --- | --- |
| VN1R1 (GeneID 57191) | 1 | -0.425 | 99 | 73.8 |
| VN1R1 (GeneID 57191) | 2 | -0.0819 | 73.2 | 69.1 |
| VN1R1 (GeneID 57191) | 3 | -0.213 | 61.7 | 53.2 |
| VN1R1 (GeneID 57191) | 4 | 0.622 | 39.4 | 60.6 |
| ULBP2 (GeneID 80328) | 1 | -0.392 | 66.7 | 50.9 |
| ULBP2 (GeneID 80328) | 2 | -0.278 | 55 | 45.4 |
| ULBP2 (GeneID 80328) | 3 | -0.386 | 96.8 | 74.1 |
| ULBP2 (GeneID 80328) | 4 | -0.334 | 68.8 | 54.6 |
| ULBP2 (GeneID 80328) | 5 | -0.407 | 103 | 77.8 |
| ULBP2 (GeneID 80328) | 6 | -0.204 | 62 | 53.8 |
| ULBP2 (GeneID 80328) | 7 | -0.0971 | 115 | 107 |
| GZMH (GeneID 2999) | 1 | -0.00577 | 62.7 | 62.5 |
| GZMH (GeneID 2999) | 2 | -0.123 | 49.4 | 45.3 |
| GZMH (GeneID 2999) | 3 | -0.285 | 110 | 90.1 |
| GZMH (GeneID 2999) | 4 | -0.399 | 63.1 | 47.9 |
| VPREB3 (GeneID 29802) | 1 | -0.274 | 111 | 92.1 |
| VPREB3 (GeneID 29802) | 2 | 0.146 | 61.1 | 67.6 |
| VPREB3 (GeneID 29802) | 3 | 0.0383 | 89.1 | 91.5 |
| VPREB3 (GeneID 29802) | 4 | -0.0035 | 88.5 | 88.3 |
| CLDN3 (GeneID 1365) | 1 | -0.271 | 64.4 | 53.3 |
| CLDN3 (GeneID 1365) | 2 | -0.442 | 90.3 | 66.5 |
| CLDN3 (GeneID 1365) | 3 | -0.0202 | 97.9 | 96.5 |
| CLDN3 (GeneID 1365) | 4 | -0.285 | 128 | 105 |
| EYA4 (GeneID 2070) | 1 | -0.353 | 90.7 | 71 |
| EYA4 (GeneID 2070) | 2 | -0.027 | 82.9 | 81.4 |
| EYA4 (GeneID 2070) | 3 | -0.403 | 82.4 | 62.3 |
| EYA4 (GeneID 2070) | 4 | -0.553 | 121 | 82.7 |
| GRM1 (GeneID 2911) | 1 | 0.362 | 48.8 | 62.7 |
| GRM1 (GeneID 2911) | 2 | -0.462 | 45.4 | 33 |
| GRM1 (GeneID 2911) | 3 | -0.108 | 103 | 95.1 |
| GRM1 (GeneID 2911) | 4 | -0.144 | 96.8 | 87.6 |
| NCOR2 (GeneID 9612) | 1 | -0.302 | 83.5 | 67.8 |
| NCOR2 (GeneID 9612) | 2 | -0.63 | 103 | 66.8 |
| NCOR2 (GeneID 9612) | 3 | 0.118 | 64.4 | 69.9 |
| NCOR2 (GeneID 9612) | 4 | -0.0186 | 101 | 100 |
| SQSTM1 (GeneID 8878) | 1 | -0.172 | 89.8 | 79.7 |
| SQSTM1 (GeneID 8878) | 2 | -0.0598 | 23.3 | 22.3 |
| SQSTM1 (GeneID 8878) | 3 | -0.0163 | 66.1 | 65.4 |
| SQSTM1 (GeneID 8878) | 4 | -0.135 | 72.1 | 65.7 |
| ECD (GeneID 11319) | 1 | -0.53 | 105 | 72.7 |
| ECD (GeneID 11319) | 2 | -0.153 | 52.2 | 47 |
| ECD (GeneID 11319) | 3 | 0.506 | 50.4 | 71.6 |
| ECD (GeneID 11319) | 4 | -0.0739 | 91.7 | 87.1 |
| TRPM1 (GeneID 4308) | 1 | 0.213 | 38.6 | 44.8 |
| TRPM1 (GeneID 4308) | 2 | 0.716 | 28.9 | 47.5 |
| TRPM1 (GeneID 4308) | 3 | -0.0716 | 76 | 72.3 |
| TRPM1 (GeneID 4308) | 4 | -0.0977 | 109 | 102 |
| ARL3 (GeneID 403) | 1 | 0.0834 | 71.9 | 76.1 |
| ARL3 (GeneID 403) | 2 | -0.452 | 103 | 75.4 |
| ARL3 (GeneID 403) | 3 | 0.193 | 64.1 | 73.2 |
| DUSP12 (GeneID 11266) | 1 | 0.25 | 65.5 | 77.9 |
| DUSP12 (GeneID 11266) | 2 | -0.523 | 96.8 | 67.4 |
| DUSP12 (GeneID 11266) | 3 | -0.173 | 90.9 | 80.6 |
| DUSP12 (GeneID 11266) | 4 | -0.24 | 97.3 | 82.4 |
| ASB8 (GeneID 140461) | 1 | 0.0176 | 71.8 | 72.7 |
| ASB8 (GeneID 140461) | 2 | -0.296 | 106 | 86.5 |
| ASB8 (GeneID 140461) | 3 | 0.0782 | 93.2 | 98.4 |
| ASB8 (GeneID 140461) | 4 | -0.126 | 77.1 | 70.7 |
| VN1R10P (GeneID 387316) | 1 | 0.897 | 22.7 | 42.3 |
| VN1R10P (GeneID 387316) | 2 | 0.103 | 73.8 | 79.3 |
| VN1R10P (GeneID 387316) | 3 | 0.345 | 42.6 | 54.1 |
| VN1R10P (GeneID 387316) | 4 | -0.213 | 98.3 | 84.8 |
| MS4A10 (GeneID 341116) | 1 | -0.224 | 120 | 103 |
| MS4A10 (GeneID 341116) | 2 | -0.104 | 93.9 | 87.4 |
| MS4A10 (GeneID 341116) | 3 | 0.57 | 59.3 | 88.1 |
| MS4A10 (GeneID 341116) | 4 | -0.239 | 133 | 112 |
| GPC6 (GeneID 10082) | 1 | -0.072 | 75.2 | 71.5 |
| GPC6 (GeneID 10082) | 2 | 0.434 | 52.9 | 71.5 |
| GPC6 (GeneID 10082) | 3 | -0.222 | 74.9 | 64.2 |
| GPC6 (GeneID 10082) | 4 | -0.41 | 70.2 | 52.8 |
| ING2 (GeneID 3622) | 1 | -0.137 | 100 | 91.1 |
| ING2 (GeneID 3622) | 2 | -0.394 | 105 | 79.8 |
| ING2 (GeneID 3622) | 3 | -0.162 | 41.1 | 36.7 |
| ING2 (GeneID 3622) | 4 | 0.0502 | 65.9 | 68.3 |
| YWHAE (GeneID 7531) | 1 | 0.0849 | 87.1 | 92.4 |
| YWHAE (GeneID 7531) | 2 | -0.311 | 62.7 | 50.5 |
| YWHAE (GeneID 7531) | 3 | -0.0133 | 15.7 | 15.6 |
| YWHAE (GeneID 7531) | 4 | -0.176 | 63.9 | 56.5 |
| YWHAE (GeneID 7531) | 5 | -0.241 | 21.3 | 18 |
| IMPDH2 (GeneID 3615) | 1 | -0.0414 | 64.5 | 62.7 |
| IMPDH2 (GeneID 3615) | 2 | -0.13 | 102 | 93.5 |
| IMPDH2 (GeneID 3615) | 3 | -0.371 | 114 | 88.5 |
| CCNA1 (GeneID 8900) | 1 | -0.199 | 71.2 | 62 |
| CCNA1 (GeneID 8900) | 2 | -0.267 | 110 | 91.4 |
| CCNA1 (GeneID 8900) | 3 | 0.117 | 84.2 | 91.3 |
| ASPH (GeneID 444) | 1 | -0.133 | 88.2 | 80.4 |
| ASPH (GeneID 444) | 2 | 0.376 | 86.2 | 112 |
| ASPH (GeneID 444) | 3 | 0.919 | 38.3 | 72.4 |
| ASPH (GeneID 444) | 4 | 2.32 | 9.64 | 48.2 |
| ASPH (GeneID 444) | 5 | -0.171 | 105 | 92.8 |
| ASPH (GeneID 444) | 6 | -0.377 | 68.3 | 52.6 |
| ASPH (GeneID 444) | 7 | -0.316 | 113 | 90.8 |
| ASPH (GeneID 444) | 8 | -0.166 | 30.8 | 27.5 |

Records listed so far whose gene name begins with T or t:
| gene knocked down | reagent no. | log2 vehicle/camptothecin viability | viability with camptothecin (% of control) | viability without drug (% of control) |
| --- | --- | --- | --- | --- |
| TRPM1 (GeneID 4308) | 1 | 0.213 | 38.6 | 44.8 |
| TRPM1 (GeneID 4308) | 2 | 0.716 | 28.9 | 47.5 |
| TRPM1 (GeneID 4308) | 3 | -0.0716 | 76 | 72.3 |
| TRPM1 (GeneID 4308) | 4 | -0.0977 | 109 | 102 |
